Reference: PMC9675737
Results are given in words; binding and its absence hold for the method and conditions named. For some of these results: In cells and extracts the contact can be indirect. Some results given as binding are weak or reduced against the parent protein; the word gives no strength.

Sequences of proteins named here, by UniProt entry; tags and fusion partners are left off.
UniProt O60825: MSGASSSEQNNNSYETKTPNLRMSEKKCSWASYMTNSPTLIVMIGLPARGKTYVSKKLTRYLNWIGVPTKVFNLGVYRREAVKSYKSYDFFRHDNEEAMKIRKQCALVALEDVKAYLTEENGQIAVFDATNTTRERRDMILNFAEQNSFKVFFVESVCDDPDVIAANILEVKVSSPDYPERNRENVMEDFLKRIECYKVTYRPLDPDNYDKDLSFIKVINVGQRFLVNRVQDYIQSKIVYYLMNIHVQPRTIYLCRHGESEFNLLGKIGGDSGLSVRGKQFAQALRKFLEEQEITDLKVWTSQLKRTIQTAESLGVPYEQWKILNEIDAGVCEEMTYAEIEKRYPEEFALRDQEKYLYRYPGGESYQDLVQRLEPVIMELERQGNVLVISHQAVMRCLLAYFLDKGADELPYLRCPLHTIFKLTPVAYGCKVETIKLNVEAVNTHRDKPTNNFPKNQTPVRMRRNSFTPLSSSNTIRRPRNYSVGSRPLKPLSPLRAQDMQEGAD
UniProt Q16875: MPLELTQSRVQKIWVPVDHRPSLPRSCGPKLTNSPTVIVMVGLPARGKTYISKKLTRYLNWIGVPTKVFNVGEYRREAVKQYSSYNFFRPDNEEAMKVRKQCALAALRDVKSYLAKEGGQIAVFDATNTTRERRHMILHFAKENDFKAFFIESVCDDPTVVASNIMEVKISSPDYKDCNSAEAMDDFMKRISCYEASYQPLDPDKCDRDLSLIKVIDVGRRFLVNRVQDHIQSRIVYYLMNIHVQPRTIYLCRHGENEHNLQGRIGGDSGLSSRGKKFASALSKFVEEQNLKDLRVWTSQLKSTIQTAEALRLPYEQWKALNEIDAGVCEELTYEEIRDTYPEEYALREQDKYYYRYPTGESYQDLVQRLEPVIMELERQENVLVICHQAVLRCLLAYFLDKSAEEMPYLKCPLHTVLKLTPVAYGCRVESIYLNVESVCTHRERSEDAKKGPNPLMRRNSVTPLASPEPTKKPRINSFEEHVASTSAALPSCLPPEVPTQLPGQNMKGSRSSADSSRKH
UniProt P31946: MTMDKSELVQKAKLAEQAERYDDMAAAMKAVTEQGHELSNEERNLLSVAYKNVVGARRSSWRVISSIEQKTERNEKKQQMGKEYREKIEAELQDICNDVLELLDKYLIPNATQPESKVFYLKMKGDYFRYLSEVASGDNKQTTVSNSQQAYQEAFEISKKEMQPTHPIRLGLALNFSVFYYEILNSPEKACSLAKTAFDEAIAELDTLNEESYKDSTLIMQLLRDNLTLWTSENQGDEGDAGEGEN

Columns and labels:
[1] = target: His-tagged PFKFB2 (human) (UniProt O60825); test: pull-down; His-tagged PFKFB2 complexes isolated on cobalt IMAC Dynabeads from NRAS^Q61 and BRAF^V600E mutant melanoma cells, control, GS, sorafenib; immunoblot
[2] = target: His-tagged PFKFB2 (human) (UniProt O60825); test: co-IP + pull-down; reciprocal and consecutive isolation of Flag-PFKFB3 (anti-Flag M2 affinity gel, eluted with Flag peptide) and His-PFKFB2 (His-tag pull-down) from doubly infected NRAS^Q61 mutant cells, 4 h GS; immunoblot
[3] = target: recombinant PFKFB2 (UniProt O60825); test: co-IP; recombinant PFKFB2 and PFKFB3 incubated in 50 mM NaCl, 50 mM Tris pH 7.4, 1 mM EDTA, 1% NP-40, 30 min at 30 °C, then PFKFB2 or PFKFB3 immunoprecipitation; immunoblot; both purified

| Substance | binding [1] | other results |
| --- | --- | --- |
| PFKFB3 (endogenous) (from UniProt Q16875 1-520) (enzyme) | binds |  |
| Flag-PFKFB3 (from UniProt Q16875 1-520) (enzyme) |  | binding [2]: binds |
| 14-3-3β (from UniProt P31946 1-246) | binds |  |
| recombinant PFKFB3 (from UniProt Q16875 1-520) (enzyme) |  | binding [3]: binds |
